In article PMC10861826:
No constants are given. Whether binding was seen depends on the method and setting. In cells and extracts the contact can be indirect. Some results given as binding are weak or reduced against the parent protein; the word gives no strength.

Protein sequences, listed by entry. Tags and fused reporters are not part of them.
UniProt O15392: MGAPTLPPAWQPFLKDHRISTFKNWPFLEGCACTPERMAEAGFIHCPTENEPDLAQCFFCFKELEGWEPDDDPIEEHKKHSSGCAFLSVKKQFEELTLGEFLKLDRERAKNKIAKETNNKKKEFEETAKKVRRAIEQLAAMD

Target: survivin (human (endogenous in HCC827)) (UniProt O15392)
Experiment: co-IP; survivin antibody (2 ug) on protein A/G-agarose beads, lysate incubated 2 h at 4°C; HCC827 cells treated with Dioscin or DMSO for 24 h, then MG132 (20 µM) for 8 h; IP lysis buffer; co-precipitated proteins detected by immunoblot

B1: E3 ubiquitin ligase Fbxl7 (protein, UniProt Q9UJT9 1-491)
chain: MGANNGKQYGSEGKGSSSISSDVSSSTDHTPTKAQKNVATSEDSDLSMRTLSTPSPALICPPNLPGFQNGRGSSTSSSSITGETVAMVHSPPPTRLTHPLIRLASRPQKEQASIDRLPDHSMVQIFSFLPTNQLCRCARVCRRWYNLAWDPRLWRTIRLTGETINVDRALKVLTRRLCQDTPNVCLMLETVTVSGCRRLTDRGLYTIAQCCPELRRLEVSGCYNISNEAVFDVVSLCPNLEHLDVSGCSKVTCISLTREASIKLSPLHGKQISIRYLDMTDCFVLEDEGLHTIAAHCTQLTHLYLRRCVRLTDEGLRYLVIYCASIKELSVSDCRFVSDFGLREIAKLESRLRYLSIAHCGRVTDVGIRYVAKYCSKLRYLNARGCEGITDHGVEYLAKNCTKLKSLDIGKCPLVSDTGLECLALNCFNLKRLSLKSCESITGQGLQIVAANCFDLQTLNVQDCEVSVEALRFVKRHCKRCVIEHTNPAFF
  binding: binds
